PMC10267149, “The structure of phosphatidylinositol remodeling MBOAT7 reveals its catalytic mechanism and enables inhibitor identification” (Nature Communications, 2023)
Results are given in words; binding and its absence hold for the method and conditions named.

Target: T1, Membrane-bound O-acyltransferase (MBOAT) 7 from Homo sapiens (human), Q96N66
T1 chain: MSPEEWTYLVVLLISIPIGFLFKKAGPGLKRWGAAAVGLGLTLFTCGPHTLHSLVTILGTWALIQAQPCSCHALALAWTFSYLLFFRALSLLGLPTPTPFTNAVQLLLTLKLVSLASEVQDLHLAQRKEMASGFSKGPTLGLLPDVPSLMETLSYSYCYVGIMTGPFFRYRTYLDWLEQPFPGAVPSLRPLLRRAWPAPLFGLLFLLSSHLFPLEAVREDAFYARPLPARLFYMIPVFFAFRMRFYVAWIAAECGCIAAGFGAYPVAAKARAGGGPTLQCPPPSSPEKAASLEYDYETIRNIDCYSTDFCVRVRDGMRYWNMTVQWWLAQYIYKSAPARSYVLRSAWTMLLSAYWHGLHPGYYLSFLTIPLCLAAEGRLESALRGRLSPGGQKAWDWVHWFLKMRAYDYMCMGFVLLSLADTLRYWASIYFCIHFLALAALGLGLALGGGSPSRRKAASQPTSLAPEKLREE
Assay: cryo-EM structure; single-particle cryo-EM of purified MBOAT7 reconstituted in amphipol PMAL-C8, 5–6 mg/ml, apo state; both purified
Details: remark: other sources report otherwise

B1: Membrane-bound O-acyltransferase (MBOAT) 7 from Homo sapiens, Q96N66 1-472 (enzyme)
chain: T1 chain
- binding: no binding (tested: 5–6 mg/ml)
